Binding data for two molecules are collected here from article PMC8748873.

Chains of the proteins cited; added tags and fusions are not shown.
UniProt P01108: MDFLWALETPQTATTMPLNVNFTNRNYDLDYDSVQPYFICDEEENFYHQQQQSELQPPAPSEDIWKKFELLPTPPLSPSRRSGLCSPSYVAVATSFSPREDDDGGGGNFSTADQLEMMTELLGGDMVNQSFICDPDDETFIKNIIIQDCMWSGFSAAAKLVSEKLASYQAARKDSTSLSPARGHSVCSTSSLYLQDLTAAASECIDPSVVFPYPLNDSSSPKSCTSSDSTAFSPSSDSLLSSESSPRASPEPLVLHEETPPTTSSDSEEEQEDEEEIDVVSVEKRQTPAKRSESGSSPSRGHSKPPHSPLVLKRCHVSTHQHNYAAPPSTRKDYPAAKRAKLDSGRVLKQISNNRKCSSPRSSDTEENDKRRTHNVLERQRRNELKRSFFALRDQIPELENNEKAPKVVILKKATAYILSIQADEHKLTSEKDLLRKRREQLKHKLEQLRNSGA

Results are given in words; binding and its absence hold for the method and conditions named. Binding seen in cells or lysates may run through a third protein.

The target in experiment [1] is T1, RONIN (THAP Domain Containing 11) (mouse (endogenous in embryonic brain)) (UniProt Q9JJD0).
T1 sequence: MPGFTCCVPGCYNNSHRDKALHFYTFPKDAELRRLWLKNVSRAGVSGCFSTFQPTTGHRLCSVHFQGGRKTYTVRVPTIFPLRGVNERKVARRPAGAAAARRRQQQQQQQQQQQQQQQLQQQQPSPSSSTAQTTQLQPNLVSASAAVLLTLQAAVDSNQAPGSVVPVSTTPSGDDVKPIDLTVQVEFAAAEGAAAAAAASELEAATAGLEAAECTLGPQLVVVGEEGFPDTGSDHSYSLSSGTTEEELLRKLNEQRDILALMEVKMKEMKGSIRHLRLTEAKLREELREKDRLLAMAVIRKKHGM
In words: co-IP; endogenous proteins from embryonic mouse brain lysate (wild type, Hcfc1 A115V/Y or Ronin F80L/F80L); 500 ug lysate with 1 ug antibody overnight at 4 °C, Protein A/G magnetic beads, western blot. For orientation: Immunoblotting shows a protein as a band on a membrane.

The target of experiment [2] is T1, RONIN (THAP Domain Containing 11) (mouse (endogenous in embryonic brain)). Description: co-IP; endogenous proteins from embryonic mouse brain and retinae; antibody overnight at 4 °C, Protein A/G magnetic beads, western blot.

On to C-MYC (from UniProt P01108 1-454), for which the binding entry in experiment [1] is reported as “no binding”.

B1: ZNF143 (protein, UniProt O70230 1-638)
chain: MLLAQINRDSQGMTEFPGGGMEAQHVTLCLTEAVTVADGDNLENMEGVSLQAVTLADGSTAYIQHNSKDGRLIDGQVIQLEDGSAAYVQHVPIPKSTGDSLRLEDGQAVQLEDGTTAFIHHTSKDSYDQSSLQAVQLEDGTTAYIHHAVQVPQSDTILAIQADGTVAGLHTGDATIDPDTISALEQYAAKVSIDGSDGVTSTGMIGENEQEKKMQIVLQGHATRVTPKSQQSGEKAFRCKYDGCGKLYTTAHHLKVHERSHTGDRPYQCEHSGCGKAFATGYGLKSHFRTHTGEKPYRCSEDNCTKSFKTSGDLQKHIRTHTGERPFKCPIEGCGRSFTTSNIRKVHIRTHTGERPYYCTEPGCGRAFASATNYKNHVRIHTGEKPYVCTVPGCDKRFTEYSSLYKHHVVHTHSKPYNCNHCGKTYKQISTLAMHKRTAHNDTEPIEEEQEAFFEPPPGQGDDVLKGSQITYVTGVDGEDIVSTQVATVTQSGLSQQVTLISQDGTQHVNISQADMQAIGNTITMVTQDGTPITVPTHDAVISSAGTHSVAMVTAEGTEGQQVAIVAQDLAAFHTASSEMGHQQHSHHLVTTETRPLTLVATSNGTQIAVQLGEQPSLEEAIRIASRIQQGETPGLDD
On to B1, for which, in experiment [2], the binding result is on record as “no binding”.
